Assay results published in patent US5426099A, “Process for inducing analgesia, peptides and therapeutic compositions” (Rutgers, The State University of New Jersey, priority 1991, dated 1995).
Not every detail of the peptide structures is certain; ends, links or a residue may be inferred. Where no end group is shown, it is not given here.

Key:
[1] = test system: female Sprague-Dawley rats; experiment: Vocalization threshold to tail shock; type: in vivo, rat
From the text: Electrical stimulation (100 millisecond trains of 60 Hz square waveform at three-second intervals ranging from 0.01 to 0.4 mA in 0.01 mA increments) is applied (under computer control using a Commodore 64C computer and a Coulbourn constant current stimulator) to the surface of the tail via two lengths of blunt 18-ga stainless steel tubing coated with conductive gel (Spectra 360 Electrode Gel; Parker Laboratories Inc., Orange, N.J. 07050) and taped to the midsection of the tail 2 cm apart, parallel to the axis of the tail. An ascending/descending method of limits is used to estimate the threshold (in mA) to induce vocalization. In this method, an observer records whether or not vocalization occurs in response to each shock. If an animal vocalizes at a particular current intensity, the current intensity is then reduced stepwise until a shock no longer elicits a vocalization response. Then the current is increased stepwise until the animal again vocalizes, and so on, until all mA values for 6 such inversions are obtained. The vocalization threshold estimate is the mean of these 6 values.
The vocalization threshold to tail shock increased by 70% over baseline (pre-injection) levels by the first minute after the intrathecal injection of VIP 11-28 (molar quantity equivalent to 25 mcg VIP 11-28, hereafter referred to as 25 mcge [microgram equivalents]).
Female Sprague-Dawley rats weighing 250 g are used in the testing. The rats are ovariectomized and implanted surgically through the cisterna magna with an intrathecal catheter (i.t.) (PE 10 polyethylene tubing 7.5 cm length) at least 1 week before testing.

[2] = test system: female Sprague-Dawley rats; experiment: Tail-flick latency to radiant heat; conditions: intrathecal, 104, 52, 26, 13 or 0 micrograms
[3] = intrathecal, vocalization threshold test

Substance: TRLRKQMAVKKY-NH2 [VIP 11-22]
- analgesia on the vocalization threshold test ([1]; administered directly to the spinal cord): produces analgesia
- mean VOC-T of 52 microgram group compared with 26 and 104 microgram groups ([1]; intrathecal, 52 microgram): differs significantly from the 26 and 104 microgram groups at 40 minutes post i.t. injection only
- changes in mean VOC-T across time post injection, other dose groups ([1]; intrathecal, 104, 26, 13 micrograms): No other groups show significant changes in mean VOC-T across time post injection
- analgesia continued throughout testing period [1, 3]: ≥ 60 min
- onset of analgesia post i.t. injection [1, 3]: 20 min
- tail flick latency, differences among groups [2]: no significant differences among groups on the tail flick latency test
